# Reference: PubChem BioAssay AID1487 (National Center for Advancing Translational Sciences (NCATS), 2009)
# Several values for one entry are separate records, joined by “and”; a condition that tells them apart may be missing. Equal values may be shown once. The list shows a part of the results. Shown are side measurements of this screen, not its main read-out; they come without a call. Compounds called inactive in the main read-out are mostly missing here. The note in brackets gives the kind of curve behind each potency; many fits are weak.
# Assay: qHTS Assay for Modulators of Lamin A Splicing
# Conditions: HeLa LMNA splicing GFP/RFP minigene ratio, 48 h
# In short: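 S3 HeLa stable clones carrying a lamin A-EGFP splicing minigene plus DsRed2 were seeded at 600 cells/well in Opti-MEM with 2% FBS, pin-dosed and incubated 48 h at 37°C. Acumen cytometry (488 nm) gave the GFP/RFP total-intensity ratio.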
# [1] = measured here: GFP splicing reporter channel
# [2] = measured here: RFP viability control channel
SMILES,AC50 [1],AC50 [2]
C=CCNC(=O)c1onc(CSc2ccc(C)c(C)c2)c1C(=O)O,"2.51 µM [falling, single point]",–
COc1ccc(Cc2nnc(-c3cccc(C)c3)o2)cc1OC,–,"15.8 µM [rising, single point]"
c1ccc2c(c1)OCC(c1csc3ncnc(N4CCCC4)c13)O2 (stereo not drawn),"35.5 µM [rising, single point]","35.5 µM [rising, single point]"
O=C(Nc1ccc(OC(F)(F)F)cc1)C1CCCN(S(=O)(=O)c2cccnc2)C1 (stereo not drawn),"11.2 µM [rising, single point]","20 µM [rising, partial curve]"
CCOC(=O)NC1(Nc2ccc(C)cc2)Oc2ccccc2O1,–,"10 µM [rising, partial curve]"
Cc1ccc(S(=O)(=O)Nc2ccccc2-c2ccccc2NS(=O)(=O)c2ccc(C)cc2)cc1,"35.5 µM [falling, single point]","35.5 µM [falling, single point]"
O=C(CN1C(=O)NC(c2ccccc2)(c2ccccc2)C1=O)Nc1ccc2[nH]c(=O)[nH]c2c1,"0.355 µM [rising, full curve]","0.251 µM [rising, full curve, poor fit]"
COc1ccc(CCNC(=O)CSc2cn(Cc3ccccc3)c3ccccc23)cc1OC,–,"25.1 µM [rising, single point]"
COc1ccc(NS(=O)(=O)c2cc(NC(=O)CCSc3ccccc3)ccc2OC)cc1,–,"1.41 µM [rising, partial curve, poor fit]"
CC(=O)N1Cc2ccccc2C(C)CC12CCCC2 (stereo not drawn),–,"11.2 µM [rising, partial curve, poor fit]"
COc1ccc(OC)c(CCNC(=O)CCCn2c(=O)c3cccn3c3ccccc32)c1,–,"4.47 µM [rising, partial curve]"
O=C(CNC(=O)c1cccc(F)c1)N/N=C/c1cc(Br)ccc1OC(=O)/C=C/c1ccco1,"12.6 µM [rising, partial curve]","15.8 µM [rising, partial curve]"
CCOC(=O)c1sc(NC(=O)CSc2nnc(C)s2)c(C(=O)OCC)c1C,–,"22.4 µM [rising, single point]"
Cc1ccc2c(c1)-c1cc(C)nn1C(c1sccc1C)N2 (stereo not drawn),"14.1 µM [rising, single point]","11.2 µM [rising, single point]"
O=C(COC(=O)C1CC2C=CC1C2)Nc1cccc(S(=O)(=O)N2CCCCCC2)c1 (stereo not drawn),"11.2 µM [rising, single point]","35.5 µM [rising, single point]"
CC(C)Oc1ccc(CNC(=O)CCCN2C(=O)c3cccnc3Oc3ccc(Cl)cc32)cc1,"35.5 µM [falling, partial curve, poor fit]",–
O=C(CN1CCC(NC(=O)Cc2ccccc2)CC1)Nc1ccccc1Br,"35.5 µM [rising, single point]","14.1 µM [rising, partial curve]"
Cc1ccc(/C=C2/NC(=O)N(Cc3ccc(Br)cc3)C2=O)o1,"15.8 µM [rising, single point]","12.6 µM [rising, single point]"
CCCCn1c2ccccc2c2nnc(SCC(=O)NC3=NN=C(c4ccccc4)CS3)nc21,–,"35.5 µM [rising, single point]"
O=C(NCc1ccccc1)[C@H]1C[C@@H]1[C@H](NP(=O)(c1ccccc1)c1ccccc1)c1ccccc1,"0.01 µM [falling, full curve, poor fit]","0.01 µM [falling, full curve, poor fit]"
S=C1NCCNC(=S)NCCOCCOCCOCCN1,–,"0.0224 µM [rising, full curve, poor fit]"
CC(=O)Oc1c(C)cc(OCC(O)CNC(C)C)c(C)c1C (stereo not drawn),"11.2 µM [falling, partial curve, poor fit]",–
CCOC(=O)CSc1ncnc2c1nnn2-c1ccc(F)cc1,"1.58 µM [falling, full curve]",–
CCC1(CC)C(=O)NC(=O)NC1=Nc1ccccc1,–,"14.1 µM [falling, partial curve, poor fit]"
Oc1c(C=Nc2cccc3cccnc23)sc2ccccc12,–,"15.8 µM [rising, single point]"
COc1cccc(NC(=O)c2ccccc2-c2nc(-c3cccc(C)c3)no2)c1,–,"15.8 µM [rising, partial curve]"
O=C(Nc1ccc(N2CCN(C(=O)c3ccco3)CC2)c(Cl)c1)c1c(F)c(F)c(F)c(F)c1F,–,"31.6 µM [rising, single point]"

# Reprinted at random: 3 compounds from above
SMILES,AC50 [1],AC50 [2]
COc1cccc(NC(=O)c2ccccc2-c2nc(-c3cccc(C)c3)no2)c1,–,"15.8 µM [rising, partial curve]"
CC(=O)Oc1c(C)cc(OCC(O)CNC(C)C)c(C)c1C (stereo not drawn),"11.2 µM [falling, partial curve, poor fit]",–
O=C(Nc1ccc(N2CCN(C(=O)c3ccco3)CC2)c(Cl)c1)c1c(F)c(F)c(F)c(F)c1F,–,"31.6 µM [rising, single point]"

# (listing goes on)

SMILES,AC50 [1],AC50 [2]
CC(C)c1ccccc1NC(=O)c1ccccc1NC(=O)C1CCCCC1,–,"12.6 µM [rising, partial curve]"
O=C(NCc1ccccc1)c1c[nH]c2ccc(S(=O)(=O)Nc3ccc4c(c3)OCCO4)cc2c1=O,"22.4 µM [rising, single point]","22.4 µM [rising, single point]"
COc1cccc(OC)c1C(=O)NNC(=O)c1cccc(COc2ccc3c(c2)CCC3)c1,–,"22.4 µM [rising, single point]"
COc1ccc(NC(=O)c2ccc(CN3CCN(c4ccccc4)CC3)cc2)cc1OC,–,"14.1 µM [rising, partial curve]"
O=Cc1ccccc1OCCOc1ccccc1C=O,"35.5 µM [falling, single point]",–
CCC(C)NC(=O)c1cccc(NC(=O)c2nsc3ccccc23)c1 (stereo not drawn),–,"3.98 µM [falling, full curve, poor fit]"
COCCn1c(=O)c(-c2ccc(Cl)cc2)nc2cnc(OCc3ccccc3)nc21,–,"17.8 µM [falling, single point]"
COC(=O)c1c(NC(=O)c2cccc([N+](=O)[O-])c2)sc(C(N)=O)c1C,"0.00316 µM [rising, full curve, poor fit]",–
COC(=O)[C@@H]1[C@@H]2C[C@H]3c4[nH]c5ccccc5c4CCN3C[C@@H]2CC[C@@H]1O,–,"3.16 µM [falling, single point] and 355 nM [falling, full curve] and 89.1 nM [falling, full curve, poor fit]"
COc1cccc(Cn2c(=O)cnc3cnc(Nc4cccc(OC)c4)nc32)c1,"8.91 µM [falling, partial curve]","10 µM [falling, partial curve]"
O=C(O)CC/C(=C\c1cc([N+](=O)[O-])ccc1Cl)c1nc2ccccc2s1,"3.16 µM [rising, full curve, poor fit]",–
CCN(CC)CCNC(=O)c1c(C)[nH]c(/C=C2\C(=O)Nc3ccc(F)cc32)c1C,"0.0141 µM [falling, full curve]",–
Cc1ccc(-c2noc(CCC(=O)NCCN3CCc4ccccc4C3)n2)cc1,–,"35.5 µM [rising, single point]"
CC1(C)Cc2c(sc3c2c(=N)n(Cc2ccco2)c(=O)n3Cc2ccc(F)cc2)CO1,"17.8 µM [rising, single point]","5.62 µM [rising, single point]"
CCOc1ccc(Cn2c(CNS(=O)(=O)c3cccc(Cl)c3)nc3cccnc32)cc1,"1.12 µM [falling, full curve, poor fit]","3.98 µM [falling, partial curve, poor fit]"
CCC(C(=O)OCC(=O)NC(=O)NC(C)(C)C)c1ccccc1 (stereo not drawn),–,"6.31 µM [falling, partial curve]"
O=C(NNc1ccccc1)C(=O)N1CCCCC1,–,"35.5 µM [rising, single point]"
COc1ccc(-c2nc3ccc(NS(=O)(=O)c4ccc(Cl)cc4)cc3o2)cc1,"22.4 µM [falling, partial curve]","14.1 µM [falling, partial curve]"
Cc1cc(N=Nc2ccc(Cl)cc2)cc(CN2CCOCC2)c1O,"12.6 µM [rising, partial curve, poor fit]","25.1 µM [rising, single point]"
CCOC(=O)c1cc2sccc2n1Cc1ccc(C#N)cc1,–,"0.562 µM [rising, full curve]"
CCOc1ccc(NC(=O)CC2C(=O)NCCN2C(=O)c2ccc(Cl)cc2)cc1 (stereo not drawn),–,"2.82 µM [falling, partial curve, poor fit]"
Cc1ccc(CNC(=O)C2=CCN(S(=O)(=O)c3ccc(C)cc3)CC2)cc1,–,"7.08 µM [rising, full curve, poor fit]"
Cc1cccc(OCCn2c(SCC(=O)O)nc3ccccc32)c1,–,"3.98 µM [falling, partial curve, poor fit]"
CSc1ncnc2c1ncn2C1OC(CO)C(O)C1O (stereo not drawn),"0.355 µM [rising, full curve]","0.126 µM [rising, full curve, poor fit]"
COc1ccc(OC)c(/C=N/Nc2nncn2/N=C/c2cc(OC)ccc2OC)c1,"11.2 µM [rising, single point]","12.6 µM [rising, partial curve]"
COc1ccccc1NC(=O)CSc1ccc(-c2cccs2)nn1,"14.1 µM [falling, single point]",–
O=C1c2ccccc2NC(c2cn[nH]c2-c2ccc(Cl)cc2)N1O (stereo not drawn),"8.91 µM [rising, partial curve]","12.6 µM [rising, partial curve]"
